The values that follow come from PubChem BioAssay AID330 (DTP/NCI, 2004).

This experiment has as its system P388 leukemia ip, CD2F1 mice, survival T/C. Kind of experiment: NCI In Vivo Anticancer Drug Screen. Data for tumor model P388 Leukemia (intraperitoneal) in CD2F1 (CDF1) mice. The settings on record: T/C endpoint: median survival time, higher T/C = longer survival.
The mark [1] stands for this setting: dose: 10.0 mg/kg/injection, schedule: Q## X009 (ip), vehicle: lactic acid.

Molecules are shown by their SMILES. The list shows only some results of the screen, not a fair sample: it gathers tests that were run many times, whatever their T/C, doses with no T/C, and many T/C values between a quarter and a half above the control. Further doses and runs are listed elsewhere. T/C is the treated group as % of the vehicle group. Some doses have a count of surviving animals in place of a T/C: the source files T/C as zero there, which appears to mark a toxic dose or a test without result, not a measured value. Some doses without a T/C left all or most animals alive at the check, yet need not have been tolerated: the source hardly ever lists a survival T/C far under the control, and the zero likely stands for such cases as well. Counts of survivors are from the toxicity check (mostly the fifth day) where no day follows; animals may have died later. Schedules are NCI's codes, read here as Q, the interval in days (D) or hours (H), X, the number of doses. Some entries hold several experiments; their values stand side by side, smallest first. Some schedules carry Z or #; the key to these is not given. Where survival is the endpoint, the PubChem record calls one and a half times the control and up active, and a quarter to a half above the control has no call in these data; cut-offs in other NCI protocols can differ. Some T/C values are followed by the survivors on the day toxicity was checked, most often the fifth; without a count, all were alive then.

On to `c1ccc2c(NCCCCCCNc3c4ccccc4nc4ccccc34)c3ccccc3nc2c1`, for which the T/C (dose: 0.62 mg/kg/injection, schedule: Q## X009 (ip), vehicle: lactic acid) is 127 % of control; the T/C (dose: 0.63 mg/kg/injection, schedule: Q01DX009 (ip), vehicle: other) is 128 % of control; the T/C (dose: 1.25 mg/kg/injection, schedule: Q01DX009 (ip), vehicle: other) was 133 % of control; the T/C (dose: 1.25 mg/kg/injection, schedule: Q01DX009 (ip), vehicle: water) is 126 % of control; the T/C (dose: 1.25 mg/kg/injection, schedule: Q## X009 (ip), vehicle: lactic acid) is 137 and 143 % of control; the T/C (dose: 1.56 mg/kg/injection, schedule: Q01DX009 (ip), vehicle: Klucel (hydroxypropylcellulose) (HPC)) was 140 % of control. The T/C by setting is: (dose: 1.56 mg/kg/injection, schedule: Q01DX009 (ip), vehicle: lactic acid) 137 % of control; (dose: 1.94 mg/kg/injection, schedule: Q01DX009 (ip), vehicle: other) 136 % of control; (dose: 2.5 mg/kg/injection, schedule: Q01DX009 (ip), vehicle: Klucel (hydroxypropylcellulose) (HPC)) 134 and 135 % of control; (dose: 2.5 mg/kg/injection, schedule: Q01DX009 (ip), vehicle: other) 138 % of control; (dose: 2.5 mg/kg/injection, schedule: Q01DX009 (ip), vehicle: water) 138 and 141 % of control; (dose: 2.5 mg/kg/injection, schedule: Q## X009 (ip), vehicle: Klucel (hydroxypropylcellulose) (HPC)) 134 % of control. Besides, the T/C (dose: 2.5 mg/kg/injection, schedule: Q## X009 (ip), vehicle: lactic acid) was 147 % of control; the T/C (dose: 2.59 mg/kg/injection, schedule: Q01DX009 (ip), vehicle: Klucel (hydroxypropylcellulose) (HPC)) was 138 % of control; the T/C (dose: 2.59 mg/kg/injection, schedule: Q04DX003 (ip), vehicle: other) is 139 % of control; the T/C (dose: 3.24 mg/kg/injection, schedule: Q01DX009 (ip), vehicle: other) was 144 % of control; the T/C (dose: 3.75 mg/kg/injection, schedule: Q01DX009 (ip), vehicle: other) is 134 % of control; the T/C (dose: 4.32 mg/kg/injection, schedule: Q01DX009 (ip), vehicle: Klucel (hydroxypropylcellulose) (HPC)) was 147 % of control. Moreover, the T/C runs as follows: (dose: 4.32 mg/kg/injection, schedule: Q04DX003 (ip), vehicle: other) 137 % of control; (dose: 5.0 mg/kg/injection, schedule: Q01DX009 (ip), vehicle: Klucel (hydroxypropylcellulose) (HPC)) 135 [7 of 8 alive] and 139 % of control; (dose: 5.0 mg/kg/injection, schedule: Q01DX009 (ip), vehicle: other) 149 % of control; (dose: 5.0 mg/kg/injection, schedule: Q01DX009 (ip), vehicle: water) 132 and 135 % of control; (dose: 5.0 mg/kg/injection, schedule: Q## X009 (ip), vehicle: Klucel (hydroxypropylcellulose) (HPC)) 139 % of control; (dose: 5.0 mg/kg/injection, schedule: Q## X009 (ip), vehicle: lactic acid) 135 and 144 % of control. Moreover, the T/C by setting is: (dose: 7.5 mg/kg/injection, schedule: Q01DX009 (ip), vehicle: other) 142 % of control; (dose: 10.0 mg/kg/injection, schedule: Q01DX009 (ip), vehicle: Klucel (hydroxypropylcellulose) (HPC)) 126 [7 of 8 alive] and 145 % of control; (dose: 10.0 mg/kg/injection, schedule: Q## X009 (ip), vehicle: Klucel (hydroxypropylcellulose) (HPC)) 143 % of control; under setting [1], 129 % of control; (dose: 20.0 mg/kg/injection, schedule: Q01DX009 (ip), vehicle: water) 132 % of control [5 of 6 alive]. Also, the survivor count is listed as 5 of 8 (dose: 6.0 mg/kg/injection, schedule: Q01DX009 (ip), vehicle: lactic acid); 2 of 8 (dose: 10.0 mg/kg/injection, schedule: Q01DX009 (ip), vehicle: lactic acid); 2 of 6 (dose: 10.0 mg/kg/injection, schedule: Q01DX009 (ip), vehicle: water); 3 of 6 under setting [1]; 5 of 8 (dose: 12.0 mg/kg/injection, schedule: Q01DX009 (ip), vehicle: lactic acid); 4 of 6 (dose: 15.0 mg/kg/injection, schedule: Q01DX009 (ip), vehicle: other). Moreover, the survivor count is, setting by setting: (dose: 16.7 mg/kg/injection, schedule: Q01DX009 (ip), vehicle: Klucel (hydroxypropylcellulose) (HPC)) 5 of 8; (dose: 16.7 mg/kg/injection, schedule: Q01DX009 (ip), vehicle: lactic acid) 1 of 8; (dose: 20.0 mg/kg/injection, schedule: Q01DX009 (ip), vehicle: Klucel (hydroxypropylcellulose) (HPC)) 0 of 6, 5 of 8, 8 of 8; (dose: 20.0 mg/kg/injection, schedule: Q01DX009 (ip), vehicle: lactic acid) 0 of 8; (dose: 20.0 mg/kg/injection, schedule: Q01DX009 (ip), vehicle: other) 4 of 6; (dose: 20.0 mg/kg/injection, schedule: Q04DX003 (ip), vehicle: other) 4 of 8. In addition, the survivor count runs as follows: (dose: 20.0 mg/kg/injection, schedule: Q## X009 (ip), vehicle: Klucel (hydroxypropylcellulose) (HPC)) 0 of 6; (dose: 20.0 mg/kg/injection, schedule: Q## X009 (ip), vehicle: lactic acid) 0 of 4; (dose: 21.6 mg/kg/injection, schedule: Q01DX003 (ip), vehicle: water) 1 of 8; (dose: 33.3 mg/kg/injection, schedule: Q01DX009 (ip), vehicle: Klucel (hydroxypropylcellulose) (HPC)) 0 of 8; (dose: 33.3 mg/kg/injection, schedule: Q01DX009 (ip), vehicle: lactic acid) 0 of 8; (dose: 36.0 mg/kg/injection, schedule: Q01DX003 (ip), vehicle: water) 0 of 8. Further, the survivor count by setting is: (dose: 40.0 mg/kg/injection, schedule: Q01DX009 (ip), vehicle: Klucel (hydroxypropylcellulose) (HPC)) 0 of 6; (dose: 40.0 mg/kg/injection, schedule: Q## X009 (ip), vehicle: Klucel (hydroxypropylcellulose) (HPC)) 0 of 6; (dose: 60.0 mg/kg/injection, schedule: Q01DX003 (ip), vehicle: water) 0 of 8.

For the compound `COC(=O)C12CN3CC(C)(C1)C(=O)C(C)(C3)C2=O` (stereo not drawn), the survivor count (dose: 120.0 mg/kg/injection, schedule: Q01DX005 (ip), vehicle: Klucel (hydroxypropylcellulose) (HPC)) was 6 of 6.

On to `C=COS(=O)O`, for which the survivor count runs as follows: (dose: 50.0 mg/kg/injection, schedule: Q01DX009 (ip), vehicle: saline) 0 of 6; (dose: 100.0 mg/kg/injection, schedule: Q01DX009 (ip), vehicle: saline) 0 of 6; (dose: 200.0 mg/kg/injection, schedule: Q01DX009 (ip), vehicle: saline) 0 of 6.

With `CN(C)C(=O)Oc1c(Cc2ccccc2)c(=O)n2c([nH]c3ccccc32)c1C#N`, the survivor count (dose: 240.0 mg/kg/injection, schedule: Q01DX005 (ip), vehicle: saline with Tween-80) is given as 6 of 6.

On to `CCCCC(=O)N/N=C(\C)[C@]1(O)Cc2c(O)c3c(c(O)c2[C@@H](OC2CC(N)C(O)C(C)O2)C1)C(=O)c1c(OC)cccc1C3=O` (stereo partly drawn), for which the T/C (dose: 0.5 mg/kg/injection, schedule: Q01DX009 (ip), vehicle: water) is 144 % of control and the T/C (dose: 1.0 mg/kg/injection, schedule: Q01DX009 (ip), vehicle: water) is 141 % of control. Besides, the survivor count (dose: 16.0 mg/kg/injection, schedule: Q01DX009 (ip), vehicle: water) was 4 of 4 and 6 of 6.

On to `COc1c(CO)c2c(c(OC)c1OC)-c1ccc(OC)c(=O)cc1[C@@H](NC(C)=O)CC2`, for which the T/C (dose: 12.5 mg/kg/injection, schedule: Q01DX009 (ip), vehicle: Klucel (hydroxypropylcellulose) (HPC)) was 136 % of control. Also, the survivor count (dose: 100.0 mg/kg/injection, schedule: Q01DX009 (ip), vehicle: Klucel (hydroxypropylcellulose) (HPC)) is reported as 4 of 6 and the survivor count (dose: 200.0 mg/kg/injection, schedule: Q01DX009 (ip), vehicle: Klucel (hydroxypropylcellulose) (HPC)) is listed as 2 of 6.

Turning to `CC(=O)/C(=C\c1ccco1)C(=O)CCN(C)C`, the T/C (dose: 240.0 mg/kg/injection, schedule: Q01DX005 (ip), vehicle: saline) was 127 % of control. Besides, for the setting “dose: 480.0 mg/kg/injection, schedule: Q01DX005 (ip), vehicle: saline”, the survivor count was 1 of 6.
